Results are given in words; binding and its absence hold for the method and conditions named. Binding seen in cells or lysates may run through a third protein. A result given as binding can be weak or reduced; the word gives no strength. Tags and fused reporters may be left off the sequences shown.
Target: FOXK2-Flag ΔFHD (UniProt Q01167)
Experiment: co-IP; cells (BEAS-2B by the legend, HEK-293T by the methods) cotransfected for 48 h with FBXO24-V5 and FOXK2-Flag Wt or deletion plasmids; lysis Buffer A (PBS, 0.2% SDS, 0.05% Triton); anti-Flag M2 magnetic beads, RT, 30 min; immunoblot for FBXO24

Sequences of proteins named here, by UniProt entry; tags and fusion partners are left off. A change or cut given only in a name is not applied to a line headed by its entry.
UniProt Q01167: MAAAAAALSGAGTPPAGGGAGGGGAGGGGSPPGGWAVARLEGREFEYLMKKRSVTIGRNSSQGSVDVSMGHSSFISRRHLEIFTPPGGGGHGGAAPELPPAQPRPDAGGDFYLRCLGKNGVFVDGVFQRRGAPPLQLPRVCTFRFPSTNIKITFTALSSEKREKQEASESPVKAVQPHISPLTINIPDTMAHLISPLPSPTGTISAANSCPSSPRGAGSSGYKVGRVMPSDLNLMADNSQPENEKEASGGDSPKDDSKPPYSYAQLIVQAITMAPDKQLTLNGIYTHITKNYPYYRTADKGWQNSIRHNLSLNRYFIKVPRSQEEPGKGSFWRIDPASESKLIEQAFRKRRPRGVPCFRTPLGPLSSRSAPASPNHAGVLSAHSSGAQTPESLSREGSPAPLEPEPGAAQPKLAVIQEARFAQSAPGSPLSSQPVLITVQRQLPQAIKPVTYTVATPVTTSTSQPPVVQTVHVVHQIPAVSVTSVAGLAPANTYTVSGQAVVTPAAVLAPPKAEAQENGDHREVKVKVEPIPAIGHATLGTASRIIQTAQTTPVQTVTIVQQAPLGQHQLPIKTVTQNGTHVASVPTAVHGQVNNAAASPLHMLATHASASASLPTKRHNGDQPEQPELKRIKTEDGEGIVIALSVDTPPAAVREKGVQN

B1: FBXO24-V5 (protein, UniProt O75426 1-580)
chain: MGEKAVPLLRRRRVKRSCPSCGSELGVEEKRGKGNPISIQLFPPELVEHIISFLPVRDLVALGQTCRYFHEVCDGEGVWRRICRRLSPRLQDQGSGVRPWKRAAILNYTKGLYFQAFGGRRRCLSKSVAPLLAHGYRRFLPTKDHVFILDYVGTLFFLKNALVSTLGQMQWKRACRYVVLCRGAKDFASDPRCDTVYRKYLYVLATREPQEVVGTTSSRACDCVEVYLQSSGQRVFKMTFHHSMTFKQIVLVGQETQRALLLLTEEGKIYSLVVNETQLDQPRSYTVQLALRKVSHYLPHLRVACMTSNQSSTLYVTDQGGVYFEVHTPGVYRDLFGTLQAFDPLDQQMPLALSLPAKILFCALGYNHLGLVDEFGRIFMQGNNRYGQLGTGDKMDRGEPTQVCYLQRPITLWCGLNHSLVLSQSSEFSKELLGCGCGAGGRLPGWPKGSASFVKLQVKVPLCACALCATRECLYILSSHDIEQHAPYRHLPASRVVGTPEPSLGARAPQDPGGMAQACEEYLSQIHSCQTLQDRTEKMKEIVGWMPLMAAQKDFFWEALDMLQRAEGGGGGVGPPAPET
  binding: binds

— PMC11209018
